The full ranking holds about 33,000 sequences; the median of “E-score (-0.5 to 0.5)” is about -0.0034, and the highest 2% start at about 0.25. This is one part of the list.
molecular target: T1, Yap3 (UniProt P38749); assay: PBM E-score (8-mer binding enrichment) (E-score (-0.5 to 0.5)); higher = stronger / more preferred TF binding; details: protein concentration: 100 nM; construct: GST-full length
T1 sequence: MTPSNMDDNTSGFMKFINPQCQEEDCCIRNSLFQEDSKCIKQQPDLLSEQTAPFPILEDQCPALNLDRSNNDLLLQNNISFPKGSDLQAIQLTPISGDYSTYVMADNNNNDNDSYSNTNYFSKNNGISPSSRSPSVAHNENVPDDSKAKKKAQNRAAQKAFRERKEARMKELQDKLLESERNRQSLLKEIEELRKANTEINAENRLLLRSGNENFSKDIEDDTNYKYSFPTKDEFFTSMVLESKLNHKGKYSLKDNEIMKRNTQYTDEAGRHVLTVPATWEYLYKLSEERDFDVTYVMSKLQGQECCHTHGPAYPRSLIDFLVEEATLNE
Method in brief: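 Universal all-10-mer Agilent arrays, double-stranded by primer extension on fresh or once-stripped slides, were probed with about 100-200 nM GST-tagged yeast transcription factors made by PURExpress. Fluorescent anti-GST detected bound protein, and masliner normalised the scans. E-scores from the Universal PBM Analysis Suite were given to each ungapped eight-base word pooled with its reverse complement.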

Sequence	PBM E-score
AAGATGGA	0.0527
GCTAATCA	0.164
GATCAGGC	-0.0869
ATTGAGTG	0.0357
AGTCTAGA	-0.202
TCCAAGGA	-0.0575
CGTGCTAA	-0.0383
CCATTTGA	-0.0292
ACCCTCCC	0.0821
AATCTTGT	0.103
GTCGCAGA	-0.0305
GATCGACA	-0.00076
ACGTCAAC	-0.0222
TACTCCAA	0.115
TCTTCGCA	0.133
CTTCAGTC	-0.0116
AACGAAGG	-0.0577
ACGAGCCC	-0.129
CAACTCAC	0.0028
GCAGAATA	0.208
CAGTCTGG	-0.24
ATACGGGC	-0.147
ATACCGAA	0.108
ATTCTATG	0.129
AGGATATG	0.201

Sequence	PBM E-score
TGAACAAA	0.248
AGACCCCC	-0.455
ATCTATTA	0.251
CCCCTGAA	0.0163
ATGTATGG	-0.0299
AGCGCGGA	0.124
CTTTGCCC	-0.176
ACGCACTA	0.0231
GCTAGTTA	-0.0255
AAGGGTAG	-0.16
CCTTCAAG	-0.214
AGCACGAT	-0.052
CATCCAAG	-0.099
ACTGTTGA	-0.0113
AGTATCTG	-0.148
ACGATGCA	-0.0134
ATAGTAGA	0.188
GAGGTATA	0.185
TATATGAA	0.203
CGTGGTTA	-0.0282
CGAAAGCC	-0.236
CCGCCTTA	-0.232
CAGGTTGG	-0.0354
ACAATGCA	0.128
CCGCACGG	-0.117

Sequence	PBM E-score
ATGTTCAA	0.00069
AGATTCCA	0.15
AAGTTCCT	-0.0895
AGTACTAA	0.222
AGTCCGTC	-0.0473
AAGACACG	0.141
ATCGACGC	0.0589
GCGATACC	-0.067
CCTTAGCA	-0.102
AGAACTGA	0.114
ATGGGGCG	-0.111
TCTGGCCA	-0.0631
GCGGTTGA	0.104
GGATTAAA	0.154
ATTTAGTA	0.289
GGCCAGAC	-0.156
TATACGAA	0.182
GGCCAACC	-0.171
AATTCCAC	0.129
ACACTCCT	-0.086
AATGATAA	0.177
GGACCCCC	-0.471
GAGCGCGC	0.121
AAGTTCAT	0.0239
CACGTTGC	-0.183

Fetched one by one from the entries so far (five):
Sequence	PBM E-score
AGAACTGA	0.114
AGTACTAA	0.222
ACACTCCT	-0.086
TATACGAA	0.182
AAGTTCAT	0.0239

Next entries.

Sequence	PBM E-score
AGGGAGTA	-0.02
AGGTCGAC	0.18
AGGCGGCC	-0.208
AGACCACC	-0.209
ACTTGCAC	0.0734
GCGCAAAA	0.0616
AAATGTGG	0.12
ACTGGCAA	0.0804
ACCGTAAA	0.0661
AAACGTAT	0.145
ATCAAGGG	0.0005
AAATATGG	0.0893
CTTGGGCC	-0.341
CGAGCACC	-0.0918
ACGACGAT	0.0903
GTATCAAC	0.017
CAGGATTA	0.109
TATCGAAA	0.19
CTTGTCGC	-0.1
TACGCATA	0.159
AACTAAAG	0.12
AGGGAACA	-0.0788
ACTGAGAT	0.0878
GCGATCCC	-0.303
GCGCCCGC	-0.193

Sequence	PBM E-score
TCAATTGA	0.0705
GCAAGAAC	0.177
CCAGCGCG	-0.0856
CATCGGTC	-0.0737
AGACCTTC	-0.113
GCCCATCA	-0.185
CAGAGATG	-0.00542
CATCTTCA	-0.0969
CCTGACTC	-0.0934
CCCAAGAC	-0.216
CTCTCGCA	-0.166
AACTGAAA	0.195
GTGATTTA	0.261
TAGGCACA	-0.0487
CAGAGATC	-0.127
TCCGGGAA	0.059
CCCTTGTA	-0.154
GGGTTGAC	-0.191
AAAAGGAG	-0.101
GCATGCCC	0.0351
ATCCAGTA	0.111
AGACGACG	-0.089
AATTTTTG	0.114
AATCGTGG	0.204
CCCTCACG	-0.151

Rewritten comma-delimited: part of the list above
Sequence,PBM E-score
GCTAATCA,0.164
ACGAGCCC,-0.129
TGAACAAA,0.248
GAGCGCGC,0.121
AAATATGG,0.0893

Going on with the list.

Sequence	PBM E-score
AACGGCAC	-0.0741
CTCCGAAG	-0.129
CAGAAATA	0.16
CTACAGAA	0.239
CCTTTGTC	0.0874
ATCATCGC	0.059
GAGCTCGA	0.145
ATGCCCTC	-0.106
CCTACAGC	-0.033
CGGCCGGA	-0.0466
TCTAACCA	0.116
CCCACAGG	-0.16
CCGCTTAG	-0.0568
AAACATTA	0.0126
AAGCACGG	-0.0733
TGAGGACA	0.166
AAGTCAAA	0.0553
GCTCGCAC	-0.0525
ATTTTAAG	0.139
ACAGGCTA	-0.113
TGATTAAA	0.113
ACCGAGAT	0.0672
CACTCTCG	0.167
AGGTAACG	-0.00572
AAGGGCGT	-0.147

Sequence	PBM E-score
CATTTTCG	0.106
CCAGACAC	-0.222
CTCGGTCC	-0.106
CGCCCAAG	-0.158
TCGAATAA	0.162
CGTGATAG	0.122
CATTACCC	-0.0516
CGGTTACA	0.147
CTAAACTA	0.0415
CATCGCCC	-0.203
GCCCTGCA	-0.273
CTCCTGAA	-0.0154
AACCGAAG	-0.0403
AGACGTAA	0.102
AAGATACC	0.197
CGGCTGTA	-0.147
GGATAGAA	0.178
GCTAGACA	-0.0293
CCTGCGAG	-0.159
ATCCCGTG	0.127
AGGAGCTG	-0.207
AAGGGCGA	-0.193

From the supplement of paper PMC3334620
